Binding data for five molecules are collected here from publication PMC9133052.

Amino acid sequences for entries named in this document (tags omitted).
UniProt Q4V8G6: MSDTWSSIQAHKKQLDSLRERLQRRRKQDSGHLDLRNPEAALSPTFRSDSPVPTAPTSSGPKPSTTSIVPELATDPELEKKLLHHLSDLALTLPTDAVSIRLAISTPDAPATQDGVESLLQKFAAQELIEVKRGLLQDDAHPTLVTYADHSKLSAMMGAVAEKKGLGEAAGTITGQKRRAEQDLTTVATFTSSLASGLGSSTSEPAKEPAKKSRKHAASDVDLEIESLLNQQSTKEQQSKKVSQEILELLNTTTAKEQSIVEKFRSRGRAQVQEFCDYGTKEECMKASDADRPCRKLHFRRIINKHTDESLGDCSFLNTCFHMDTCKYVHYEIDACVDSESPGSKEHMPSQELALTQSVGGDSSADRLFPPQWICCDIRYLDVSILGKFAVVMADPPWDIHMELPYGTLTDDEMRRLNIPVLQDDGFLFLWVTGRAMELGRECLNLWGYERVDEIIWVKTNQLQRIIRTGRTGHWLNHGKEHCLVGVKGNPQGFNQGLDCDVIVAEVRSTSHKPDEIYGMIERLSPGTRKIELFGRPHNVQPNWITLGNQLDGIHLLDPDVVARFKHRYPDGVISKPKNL
UniProt P62630: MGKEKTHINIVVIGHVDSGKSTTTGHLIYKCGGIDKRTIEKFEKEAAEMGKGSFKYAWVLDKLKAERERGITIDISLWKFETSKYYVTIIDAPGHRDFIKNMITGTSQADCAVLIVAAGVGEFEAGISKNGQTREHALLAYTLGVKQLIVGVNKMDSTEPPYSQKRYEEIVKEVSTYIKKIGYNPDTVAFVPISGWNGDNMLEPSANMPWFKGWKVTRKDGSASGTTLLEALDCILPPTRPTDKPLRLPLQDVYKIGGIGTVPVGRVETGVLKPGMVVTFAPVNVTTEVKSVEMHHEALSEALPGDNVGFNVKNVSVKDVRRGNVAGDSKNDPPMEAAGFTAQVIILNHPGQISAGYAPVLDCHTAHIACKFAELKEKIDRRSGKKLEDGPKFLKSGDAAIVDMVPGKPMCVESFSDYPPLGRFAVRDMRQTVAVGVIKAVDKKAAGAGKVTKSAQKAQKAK

Where two headings read alike, the source gives them in different places. No constants are given. Whether binding was seen depends on the method and setting. For some assays here: In cells and extracts the contact can be indirect. Some results given as binding are weak or reduced against the parent protein; the word gives no strength. For some assays here: Sequences can lack the tags named with a protein.

Test [1] has as its target Mettl3 (rat (endogenous in BMSCs)) (UniProt Q4V8G6). The test can be described thus: co-IP; endogenous proteins immunoprecipitated from rat BMSC lysates (with or without chondrogenic induction) with Nsun4 or Mettl3 antibody and corresponding IgG, Pierce Direct Magnetic IP/Co-IP kit, western blot.
Another test has as its target T1, His-tagged Ythdf2 (UniProt E9PU11).
T1 sequence: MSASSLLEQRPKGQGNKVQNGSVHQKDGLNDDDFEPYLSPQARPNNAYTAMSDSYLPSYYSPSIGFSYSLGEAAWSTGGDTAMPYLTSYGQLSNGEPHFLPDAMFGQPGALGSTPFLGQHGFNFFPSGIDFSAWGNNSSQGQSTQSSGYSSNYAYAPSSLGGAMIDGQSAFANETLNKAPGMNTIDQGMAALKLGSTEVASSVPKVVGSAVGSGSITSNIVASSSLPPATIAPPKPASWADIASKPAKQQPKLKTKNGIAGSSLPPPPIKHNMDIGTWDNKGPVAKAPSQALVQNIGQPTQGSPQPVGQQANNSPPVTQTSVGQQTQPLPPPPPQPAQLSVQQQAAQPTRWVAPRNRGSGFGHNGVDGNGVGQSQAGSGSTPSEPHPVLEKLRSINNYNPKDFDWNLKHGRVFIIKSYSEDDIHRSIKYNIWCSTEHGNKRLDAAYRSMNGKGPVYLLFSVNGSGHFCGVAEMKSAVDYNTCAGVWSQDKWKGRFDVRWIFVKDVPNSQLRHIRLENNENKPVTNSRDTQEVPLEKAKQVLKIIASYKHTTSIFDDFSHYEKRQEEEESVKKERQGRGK
Description: SPR; Biacore 8K, 25 °C, His-tagged protein captured on NTA chip (100-150 RU), analyte proteins without His tag 3-100 nM injected 100 s, dissociation 150 s, HBS-P+ running buffer; both purified.

The target in test [2] is Mettl3 (rat (endogenous in BMSCs)) (UniProt Q4V8G6). The test can be described thus: co-IP; endogenous proteins immunoprecipitated from rat BMSC lysates (with or without chondrogenic induction) with Nsun4 or Mettl3 antibody and corresponding IgG, Pierce Direct Magnetic IP/Co-IP kit, western blot. This is another data set of the same source.

In the case of eEF1α-1 (from UniProt P62630 1-462), the binding result in test [1] is recorded as “binds”.
Regarding “eEF1α-1 (His tag cleaved) (from UniProt P62630 1-462)”, in the test with His-tagged Ythdf2, the binding entry is reported as “binds”.

B1: Ythdf3 (protein, UniProt D3ZIY3 1-585)
chain: MSATSVDQRPKGQGNKVSVQNGSIHQKDAVNDDDFEPYLSSQTNQNNSYPPMSDPYMPSYYAPSIGFPYSLGEAAWSTAGDQPMPYLTTYGQMSNGEHHYIPDGVFSQPGALGNTPPFLGQHGFNFFPGNADFSTWGTSGSQGQSTQNSAYSSSYGYPPSSLGRAITDGQAGFGNDTLSKVPGISSIEQGMTGLKIGGDLTAAVTKTVGTALSSSGMTSIATNNVPPVSSAAPKPTSWAAIARKPAKPQPKLKPKGSVGIGGSAVPPPPIKHNMNIGTWDEKGSVVKAPPTQPVLPPQTIIQQPQPLIQPPPLVQSQLPQQQPQPPQPQQQQGPQPQAQPHQVQSQQPQLQNRWVAPRNRGTGFNQNNGTGSENFGLGVVPVSASPSSVEVHPVLEKLKAINNYNPKDFDWNLKNGRVFIIKSYSEDDIHRSIKYSIWCSTEHGNKRLDAAYRSLNGKGPLYLLFSVNGSGHFCGVAEMKSVVDYNAYAGVWSQDKWKGKFEVKWIFVKDVPNNQLRHIRLENNDNKPVTNSRDTQEVPLEKAKQVLKIIATFKHTTSIFDDFAHYEKRQEEEEAMRRERNRNKQ
In the case of B1, the binding entry in test [2] was “binds”.

B2: Ythdf2 (protein, UniProt E9PU11 1-579)
chain: MSASSLLEQRPKGQGNKVQNGSVHQKDGLNDDDFEPYLSPQARPNNAYTAMSDSYLPSYYSPSIGFSYSLGEAAWSTGGDTAMPYLTSYGQLSNGEPHFLPDAMFGQPGALGSTPFLGQHGFNFFPSGIDFSAWGNNSSQGQSTQSSGYSSNYAYAPSSLGGAMIDGQSAFANETLNKAPGMNTIDQGMAALKLGSTEVASSVPKVVGSAVGSGSITSNIVASSSLPPATIAPPKPASWADIASKPAKQQPKLKTKNGIAGSSLPPPPIKHNMDIGTWDNKGPVAKAPSQALVQNIGQPTQGSPQPVGQQANNSPPVTQTSVGQQTQPLPPPPPQPAQLSVQQQAAQPTRWVAPRNRGSGFGHNGVDGNGVGQSQAGSGSTPSEPHPVLEKLRSINNYNPKDFDWNLKHGRVFIIKSYSEDDIHRSIKYNIWCSTEHGNKRLDAAYRSMNGKGPVYLLFSVNGSGHFCGVAEMKSAVDYNTCAGVWSQDKWKGRFDVRWIFVKDVPNSQLRHIRLENNENKPVTNSRDTQEVPLEKAKQVLKIIASYKHTTSIFDDFSHYEKRQEEEESVKKERQGRGK
In the case of B2, the binding result in test [2] was “binds”.

B3: Ythdf1 (protein, UniProt Q4V8J6 1-559)
chain: MSATSVDPQRTKGQENKVQNGSLHQKDAVHDNDFEPYLSGQSNPSNSYPSMSDPYLSSYYPPSIGFPYSLSEAPWSTAGDPPIPYLTTYGQLSNGDHHFMHDAVFGQPGGLGNNIYQHRFNFFPENPAFSAWGTSGSQGQQTQSSAYGSSYTYPPSSLGGTVVDGQTGFHSDTLNKAPGMNSLEQGMVGLKIGDVTTSAVKTVGSVVNSVALTGVLSGNGGTNVNMPVSKPTSWAAIASKPAKPQPKMKTKSGPIVGGTLPPPPIKHNMDIGTWDNKGPAPKASAPQQTPSPQAAPQPQQVAQPLPVQPPPLVQPQYQSPQQPLQPRWVAPRNRNAAFGQSGGANSDSNSVGSAQPTSAPSVESHPVLEKLKAAHSYNPKEFDWNLKSGRVFIIKSYSEDDIHRSIKYSIWCSTEHGNKRLDGAFRSMSSKGPVYLLFSVNGSGHFCGVAEMKSPVDYGTSAGVWSQDKWKGKFDVKWIFVKDVPNNQLRHIRLENNDNKPVTNSRDTQEVPLEKAKQVLKIIASYKHTTSIFDDFSHYEKRQEEEEVVRKERQNRNKQ
As to B3, in test [2], the binding entry is reported as “binds”.
